# Some entries share one result that the patent states for a list of compounds. For at least one compound, name, drawing or mass did not settle the structure.
# Test system: normal human lung fibroblasts
# Experiment: Ribosomal profiling: translational efficiency in TGFβ-treated fibroblasts
# Type: cell-based
# Conditions: gene ZNF608 (ENSG00000168916)
# Description: Ribosomal profiling allows for measurement of changes in transcription and translation on a genome-wide basis accompanying TGFβ-dependent transformation of fibroblasts to myofibroblasts. Ribosomal profiles of the TGFβ-treated fibroblasts from Example 1 (about 6×10^6 cells/10 cm plate) were prepared and analyzed for changes in translational efficiencies with respect to potential disease-associated cellular changes accompanying this TGFβ-induced transformation.
# Briefly, cells were washed with cold PBS supplemented with cycloheximide and lysed with 1× mammalian cell lysis buffer for 10 minutes on ice. Lysates were clarified by centrifugation for 10 minutes at 14,000 rpm and supernatants were collected. Cell lysates were processed to generate ribosomal protected fragments and total mRNA according to the instructions included with the ARTseq Ribosome Profiling Kit (Illumina, San Diego, Calif.). […] To analyze the ribosomal profiles, RNA-Seq reads were processed with tools from the FASTX-Toolkit (fastq_quality_trimmer, fastx_clipper and fastx_trimmer). Unprocessed and processed reads were evaluated for a variety of quality measures using FastQC, and processed reads were mapped to the human genome using TopHat (see, e.g., Trapnell et al., Bioinformatics 25:1105, 2009). […]
smiles,measurement,value
"Cc1cc(C2CCCCC2)n(O)c(=O)c1.NCCO [CPX, ciclopirox oloamine]",effect in renormalizing the translational profile of the gene,− (− = <0.9)
"CC(C=CC(=O)NO)=CC(C)C(=O)c1ccc(N(C)C)cc1 (centres unmarked) [TSA, 7-[4-(dimethylamino)phenyl]-N-hydroxy-4,6-dimethyl-7-oxohepta-2,4-dienamide]",effect in renormalizing the translational profile of the gene,− (− = <0.9)

# Source: patent US9993494B2, “Compositions and methods for treating fibrotic disease” (eFFECTOR Therapeutics, Inc., priority 2014, dated 2018)
